Experimental data reported in PubChem BioAssay AID1671190 (National Center for Advancing Translational Sciences (NCATS), 2021).
Among all 580,000 compounds or so, about 6,100 (1.1%) were called active. The inconclusive results got no clear call from the source; some entries with a clear call stand among them for comparison. Calls come from the whole dose curve; as a rule, active = well fitted inhibition curve with a large enough effect; inconclusive = small, poorly fitted or top-dose-only effect, or another doubt; inactive = no such curve, though single readings can be large or run the other way. Where the call is inconclusive, the potency comes from a doubtful curve fit.

Sequences of proteins named here, by UniProt entry; tags and fusion partners are left off. A change or cut given only in a name is not applied to a line headed by its entry.
UniProt P18054: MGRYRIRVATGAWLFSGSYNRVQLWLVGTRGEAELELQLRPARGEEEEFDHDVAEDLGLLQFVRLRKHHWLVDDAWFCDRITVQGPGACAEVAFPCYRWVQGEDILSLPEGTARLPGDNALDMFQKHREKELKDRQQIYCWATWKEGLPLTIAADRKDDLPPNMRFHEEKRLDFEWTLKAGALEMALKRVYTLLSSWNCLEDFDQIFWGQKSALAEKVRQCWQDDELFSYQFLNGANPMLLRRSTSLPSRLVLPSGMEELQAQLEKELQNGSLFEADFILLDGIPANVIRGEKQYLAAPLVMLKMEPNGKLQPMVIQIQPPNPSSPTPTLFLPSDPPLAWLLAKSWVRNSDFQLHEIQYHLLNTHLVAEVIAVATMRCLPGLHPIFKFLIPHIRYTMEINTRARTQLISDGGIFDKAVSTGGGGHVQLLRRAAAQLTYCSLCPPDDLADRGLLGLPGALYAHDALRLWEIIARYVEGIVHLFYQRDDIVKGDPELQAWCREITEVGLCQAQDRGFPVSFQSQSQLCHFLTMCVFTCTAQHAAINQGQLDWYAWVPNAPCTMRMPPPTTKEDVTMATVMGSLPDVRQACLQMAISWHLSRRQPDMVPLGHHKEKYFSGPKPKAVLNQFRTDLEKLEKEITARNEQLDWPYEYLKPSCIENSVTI

What follows are compounds tested against Polyunsaturated fatty acid lipoxygenase ALOX12 (Homo sapiens) (UniProt P18054) (assay: Primary qHTS assay for inhibitors of human arachidonate 12S-lipoxygenase (ALOX12): Round 2). Details: purified 12hLO, xylenol orange hydroperoxide absorbance; activity change, negative = inhibition: at 108 µM (top of the series) unless noted.
Outline: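 Purified human 12hLO (150 nM final) in 25 mM Hepes, 0.01% Triton X-100, pH 7.0 was preincubated 15 min at room temperature with compound. Then 40 uM arachidonic acid was added, 30 min. Hydroperoxide was read by Fe-XO absorbance ratio 573/405 nm.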
% is set by controls: 0 for no effect and ±100 for the full control effect; potency is the fitted concentration of half-maximal effect.

SMILES	Potency	activity change, negative = inhibition
COc1cccc(CNC(=O)c2ccc3nc(-c4ccccc4)c(-c4ccccc4)nc3c2)c1OC	inactive	
COc1ccc(-c2cc(C(=O)NC3CCNCC3)c3c(C)nn(-c4ccccc4)c3n2)cc1	active: 25.1 µM	
CN(CCCNC1CCC2(CCNCC2)CC1)c1ccccc1	active: 10 µM	
COCCCn1c(SCC(=O)Nc2oc(C)c3c(C)n[nH]c(=O)c23)nc2sc3c(c2c1=O)CCC3	inconclusive: 28.2 µM [inhibitor, partial curve, poor fit]	
CC1CCN(C(=O)C(=O)N2CCN(c3nc(-c4ccco4)c4c(c3C#N)CCCC4)CC2)CC1	active: 31.6 µM	
O=C1CN(C(=O)CCCc2c[nH]c3ccccc23)c2ccccc2N1	inactive	
CN(C)C(=S)Nc1ccc(Br)c(Cl)c1	inconclusive: 0.708 µM [inhibitor, partial curve, poor fit]	
FC(F)(F)c1nnc2ccc(NCc3ccccc3)nn12	inactive	
CC(C)(C)c1nnc2n1C(C(=O)N1CCN(c3ncccn3)CC1)CC2 (stereo unspecified)	inconclusive: 70.8 µM [inhibitor, single point]	
COc1ccc2cnn(CC(=O)Nc3cccc(Cl)c3Cl)c(=O)c2c1OC	inconclusive: 100 µM [inhibitor, partial curve, poor fit]	
COc1cc(/C=C(/C#N)c2ccc(Cl)cc2)cc(Cl)c1OCc1ccccc1C#N	inactive	
COc1cccc(NC(=O)CN(C)C(=O)c2cc(Cl)nc3ccccc23)c1	inconclusive: 28.2 µM [inhibitor, single point]	
COC(=O)c1ccc2[nH]c3c(c2c1)CC(C)CC3 (stereo unspecified)	inactive	
Cc1nc2nc(N(Cc3ccccc3)C(=O)c3ccco3)[nH]n2c(=O)c1Cc1ccccc1Cl	inconclusive: 39.8 µM [inhibitor, partial curve, poor fit]	
CNC(=O)/C(=C\c1ccco1)NC(=O)c1ccco1	inconclusive: 28.2 µM [inhibitor, partial curve, poor fit]	
Cc1ccc(Nc2nc(NCCO)nc3c2cnn3C)cc1Cl	inactive	
COC(=O)c1ccccc1OCc1cc(=O)oc2ccc(C)cc12	inconclusive: 79.4 µM [inhibitor, single point]	
Cc1ccc(NC(=O)/C=N/OCC(=O)Nc2c(C(C)C)cccc2C(C)C)cc1	inconclusive: 63.1 µM [inhibitor, partial curve, poor fit]	
O=C(C1CC(=O)N(c2ccc(F)cc2)C1)N1CCCCCC1 (stereo unspecified)	inconclusive: 2.82 µM [inhibitor, full curve, poor fit]	
CCN(Cc1ccccc1)Cc1csc(C)c1C		inconclusive: -42.8% [inhibitor]
Cc1cc(NC(=O)/C=C/c2cccc(Cl)c2)n(-c2nc3ccccc3[nH]2)n1	inactive	
CC(C)Cn1c(-c2cccc(S(=O)(=O)N3CCOCC3)c2)n[nH]c1=S	inconclusive: 79.4 µM [inhibitor, partial curve, poor fit]	

SMILES	Potency	activity change, negative = inhibition
COc1cc(/C=N/Nc2nc3ccccc3[nH]2)cc(OC)c1O	inactive	
O=C(Nc1ccc(-c2nc3ccccc3o2)cc1)c1cc(-n2cnnc2)ccc1Cl	inactive	
O=C(NC(=S)NCCc1ccccc1)C1CCCCC1	inconclusive: 44.7 µM [inhibitor, partial curve, poor fit]	
Cc1ccc([N+](=O)[O-])cc1S(=O)(=O)Nc1ccc(O)c(Sc2ncn[nH]2)c1	inconclusive: 44.7 µM [inhibitor, partial curve, poor fit]	
COc1ccc2[nH]c(=O)c(CN(C(=O)NC3CCCCC3)C3CCCCC3)cc2c1	inconclusive: 89.1 µM [inhibitor, partial curve, poor fit]	
CN(Cc1cccnc1)C(=O)CCC[C@H]1NC[C@@H]2C[C@H]1CN(Cc1ccccc1)C2	inactive	
CCOC(=O)C1=C(CCl)NC(=O)NC1c1ccc2c(c1)OCO2 (stereo unspecified)	inconclusive: 31.6 µM [inhibitor, single point]	
CCCOc1ccc(/C=N/NC(=O)CN(c2ccc(OCC)cc2)S(C)(=O)=O)cc1	inconclusive: 1.78 µM [inhibitor, partial curve, poor fit]	
CC(C)c1ccc(CN2CCC(C)(Oc3ccc(Cl)cc3)C2)cc1 (stereo unspecified)	inconclusive: 70.8 µM [inhibitor, partial curve, poor fit]	
COc1ccc(C(=O)Nc2ccc(Cl)c(S(=O)(=O)Nc3ccccc3OC)c2)cc1	inactive	
CCc1n[nH]c(=S)n1/N=C/c1cccc2ccccc12	inconclusive: 56.2 µM [inhibitor, single point]	
CN(C)c1ccc(CNC(=O)C2CCCN(S(=O)(=O)c3ccc4c(c3)CCCC(=O)N4)C2)cc1 (stereo unspecified)	inactive	
COc1ccc2oc(-c3ccc(NC(=O)c4ccccc4)cc3)nc2c1	inactive	
C=CCn1c(-c2csc(-c3ccc(OC)c(OC)c3)n2)n[nH]c1=S	inconclusive: 35.5 µM [inhibitor, partial curve, poor fit]	
COc1cccc(C2/C(=C(/O)c3ccccc3)C(=O)C(=O)N2Cc2ccco2)c1 (stereo unspecified)	inconclusive: 4.47 µM [inhibitor, full curve, poor fit]	
CCCC(C(=O)NC1CCCC1)N(C(=O)Cn1nnc(-c2ccc(C)o2)n1)c1cccc(O)c1 (stereo unspecified)	inconclusive: 6.31 µM [inhibitor, full curve, poor fit]	
CCOC(=O)c1c(NC(=O)c2ccccc2C)sc2c1CC(C)(C)OC2	inconclusive: 35.5 µM [inhibitor, single point]	
CN(C)S(=O)(=O)c1ccc2c(c1)CCN2Cc1cc(C#N)ccc1F	inactive	
CCCc1nnc(NC(=O)CCC(=O)NCCc2ccc(Cl)cc2)s1	inactive	
Cc1ccc(NC(=O)c2c(C)nc3sc(C(=O)Nc4ccc(F)cc4)c(N)c3c2-c2ccc(Cl)cc2)c(C)c1	inconclusive: 112 µM [inhibitor, single point]	
COC(=O)Cc1cc(C)cc2c(=O)cc(-c3ccoc3)oc12	inconclusive: 0.316 µM [inhibitor, full curve, poor fit]	
COCCCn1c(=O)/c(=C\c2ccccc2OC(F)F)s/c1=C(/C#N)C(=O)N1CCOCC1	inconclusive: 79.4 µM [inhibitor, partial curve, poor fit]	

SMILES	Potency	activity change, negative = inhibition
Cc1cc(C(c2ccc(Cl)cc2)N2CCN(C)CC2)c(NC(=O)c2ccco2)s1 (stereo unspecified)	inconclusive: 31.6 µM [inhibitor, partial curve, poor fit]	
Cc1ccc(Nc2c(-c3ccc(N4CCOCC4)cc3)nc3cccc(C)n23)cc1	inconclusive: 50.1 µM [inhibitor, partial curve, poor fit]	
Cc1nc(Nc2ccccc2)sc1C(=O)c1ccc(F)cc1	inconclusive: 1.58 µM [inhibitor, full curve, poor fit]	
OC(c1cccc(OCc2ccccc2)c1)c1nnc(-c2ccccc2)o1 (stereo unspecified)	inactive	
COc1ccc(-c2cc(-c3ccc(OC)c(OC)c3)cn3cncc23)cc1	inconclusive: 4.47 µM [inhibitor, full curve]	
COc1ccc(-c2noc(-c3nnn4c3COC(c3ccc(C)cc3C)C4)n2)cc1 (stereo unspecified)	inactive	
COc1cc2c(cc1OC)-c1cc(Nc3ccc4c(c3)OCCO4)nc(=O)n1CC2	inactive	
Cc1ccc(Cl)cc1NC(=O)C1CC(=O)N(C(C)C)C1 (stereo unspecified)	inconclusive: 141 µM [inhibitor, single point]	
O=C(CSc1cccs1)NCc1cccs1	inconclusive: 35.5 µM [inhibitor, partial curve, poor fit]	
Cc1c(N=C2C=CC(=O)c3ccccc32)c(=O)n(-c2ccccc2)n1C	inconclusive: 50.1 µM [inhibitor, partial curve, poor fit]	
O=C(NC(=S)NCc1ccccc1)c1ccccc1	active: 39.8 µM	
COc1ccc2nc(NS(=O)(=O)c3ccc(Cl)cc3)c(Nc3cc(C)ccc3OC)nc2c1	inconclusive: 141 µM [inhibitor, single point]	
COc1ccc(C(=O)Nc2c(NC3CCCCC3)c3ccccc3oc2=O)cc1	inconclusive: 126 µM [inhibitor, partial curve, poor fit]	
COc1ccc(-c2cc3ncc(C(=O)c4cc(Cl)ccc4O)cn3n2)cc1	inactive	
O=C(O)COc1ccc(C(=O)/C=C/c2ccc(Cl)cc2Cl)cc1	inconclusive: 12.6 µM [inhibitor, full curve]	
Cc1ccc2c(COC(=O)Cc3n[nH]c(=O)c4ccccc34)cc(=O)oc2c1C	inconclusive: 3.16 µM [inhibitor, full curve, poor fit]	
CCCCN1C(=O)C(=O)N(CC(=O)N2CCN(c3ccccc3)CC2)C1=O	inconclusive: 112 µM [inhibitor, partial curve, poor fit]	
CCOC(=O)c1ccc(NC2(c3ccccc3)C(=O)c3ccccc3C2=O)cc1	inconclusive: 112 µM [inhibitor, partial curve, poor fit]	
COC(=O)c1ccc(NC(=S)NCc2ccco2)cc1	inconclusive: 50.1 µM [inhibitor, partial curve, poor fit]	
COc1ccc(NC(=O)Nc2cccs2)cc1OC	inconclusive: 14.1 µM [inhibitor, partial curve, poor fit]	
COc1ccc(CCNC(=O)COC(=O)CSc2ccc(C(N)=O)cc2[N+](=O)[O-])cc1OC	inconclusive: 44.7 µM [inhibitor, partial curve, poor fit]	
CCN1CCN(C(=O)CCCN(c2cccc(C)c2)S(C)(=O)=O)CC1	inconclusive: 35.5 µM [inhibitor, partial curve, poor fit]	

Molecules shown so far containing a nitro group on carbon (two):
SMILES	Potency	activity change, negative = inhibition
Cc1ccc([N+](=O)[O-])cc1S(=O)(=O)Nc1ccc(O)c(Sc2ncn[nH]2)c1	inconclusive: 44.7 µM [inhibitor, partial curve, poor fit]	
COc1ccc(CCNC(=O)COC(=O)CSc2ccc(C(N)=O)cc2[N+](=O)[O-])cc1OC	inconclusive: 44.7 µM [inhibitor, partial curve, poor fit]	
